Data on 3 molecules can be found in PMC10113545, “OsWRKY76 positively regulates drought stress via OsbHLH148-mediated jasmonate signaling in rice”.

In assay [1] the target is T1, BD-OsWRKY76 (rice (Oryza sativa)) (UniProt Q6EPZ2).
T1 sequence: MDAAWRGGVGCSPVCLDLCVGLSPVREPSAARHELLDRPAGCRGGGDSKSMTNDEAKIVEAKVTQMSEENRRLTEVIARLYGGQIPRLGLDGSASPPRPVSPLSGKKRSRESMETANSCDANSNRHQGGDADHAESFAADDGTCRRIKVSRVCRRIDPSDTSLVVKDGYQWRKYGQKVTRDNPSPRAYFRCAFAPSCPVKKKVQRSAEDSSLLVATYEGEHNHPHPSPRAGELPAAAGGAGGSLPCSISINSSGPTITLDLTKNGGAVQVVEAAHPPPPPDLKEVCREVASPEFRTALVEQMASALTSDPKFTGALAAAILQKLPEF
As to the kind of experiment: two-hybrid; yeast strain Y2HGold; bait in pbridge (BD), prey in pGADT7 (AD); growth on SD/-Trp-Leu and SD/-Trp-Leu-His dropout plates.

Assay [2] deals with BD-OsbHLH148 (rice (Oryza sativa)). Briefly: two-hybrid; yeast three-hybrid assay, strain Y190; prey AD-JAZ12, bait BD-b148 or BD-b148-W76 (OsWRKY76 from the Met25 promoter, expressed without methionine); SD/-Trp-Leu-Met plates; beta-galactosidase activity.

These are yes or no findings as the source states them, for the method shown. Binding calls can cover weak binding; strength is not graded here. Where a sequence is shown, tags or fusion partners need not be part of it.

Turning to AD-OsJAZ11 (rice (Oryza sativa)), the binding result in assay [1] was “binds”.

B1: AD-OsJAZ12 (protein, UniProt Q7XEZ1 1-171)
chain: MAAAGSSSRFAVTCGLLSQYMRERQQPQPPVTVLEAVAEEEEEEDARTMQLFPPRAAAADGVATPSAGTAPLTIFYDGRMVVVDDVPVEKAAELMRLAGSACSPPQPAHAAALPEMPIARKASLQRFLQKRKHRITTTSEPYKKAAVASPAPEKSFAVAPVKDEPATWLGL
B1: the binding result in assay [2] is “binds”.

B2: OsWRKY76 driven by the Met25 promoter (third protein of BD-OsbHLH148-OsWRKY76) (protein, UniProt Q6EPZ2 1-327)
chain: T1 sequence
B2: in assay [2], the binding result was “binds”.
